Results are given in words; binding and its absence hold for the method and conditions named. Binding calls can cover weak binding; strength is not graded here. Sequences can lack the tags named with a protein.
Biological target: Nlp-CC2 domain, GST-tag purified protein
Assay: pull-down; GST-tag purified proteins of Nlp truncates with SEC31A or Rab1B purified protein freed of GST by Thrombin; both purified

binding: binds
B1: SEC31A purified protein (GST removed by Thrombin) (protein, UniProt O94979 1-1220)
chain: MKLKEVDRTAMQAWSPAQNHPIYLATGTSAQQLDATFSTNASLEIFELDLSDPSLDMKSCATFSSSHRYHKLIWGPYKMDSKGDVSGVLIAGGENGNIILYDPSKIIAGDKEVVIAQNDKHTGPVRALDVNIFQTNLVASGANESEIYIWDLNNFATPMTPGAKTQPPEDISCIAWNRQVQHILASASPSGRATVWDLRKNEPIIKVSDHSNRMHCSGLAWHPDVATQMVLASEDDRLPVIQMWDLRFASSPLRVLENHARGILAIAWSMADPELLLSCGKDAKILCSNPNTGEVLYELPTNTQWCFDIQWCPRNPAVLSAASFDGRISVYSIMGGSTDGLRQKQVDKLSSSFGNLDPFGTGQPLPPLQIPQQTAQHSIVLPLKKPPKWIRRPVGASFSFGGKLVTFENVRMPSHQGAEQQQQQHHVFISQVVTEKEFLSRSDQLQQAVQSQGFINYCQKKIDASQTEFEKNVWSFLKVNFEDDSRGKYLELLGYRKEDLGKKIALALNKVDGANVALKDSDQVAQSDGEESPAAEEQLLGEHIKEEKEESEFLPSSGGTFNISVSGDIDGLITQALLTGNFESAVDLCLHDNRMADAIILAIAGGQELLARTQKKYFAKSQSKITRLITAVVMKNWKEIVESCDLKNWREALAAVLTYAKPDEFSALCDLLGTRLENEGDSLLQTQACLCYICAGNVEKLVACWTKAQDGSHPLSLQDLIEKVVILRKAVQLTQAMDTSTVGVLLAAKMSQYANLLAAQGSIAAALAFLPDNTNQPNIMQLRDRLCRAQGEPVAGHESPKIPYEKQQLPKGRPGPVAGHHQMPRVQTQQYYPHGENPPPPGFIMHGNVNPNAAGQLPTSPGHMHTQVPPYPQPQPYQPAQPYPFGTGGSAMYRPQQPVAPPTSNAYPNTPYISSASSYTGQSQLYAAQHQASSPTSSPATSFPPPPSSGASFQHGGPGAPPSSSAYALPPGTTGTLPAASELPASQRTGPQNGWNDPPALNRVPKKKKMPENFMPPVPITSPIMNPLGDPQSQMLQQQPSAPVPLSSQSSFPQPHLPGGQPFHGVQQPLGQTGMPPSFSKPNIEGAPGAPIGNTFQHVQSLPTKKITKKPIPDEHLILKTTFEDLIQRCLSSATDPQTKRKLDDASKRLEFLYDKLREQTLSPTITSGLHNIARSIETRNYSEGLTMHTHIVSTSNFSETSAFMPVLKVVLTQANKLGV

From article PMC11186355
